The values that follow come from article doi:10.1101/2021.12.14.472726.

Results are given in words; binding and its absence hold for the method and conditions named. Tags and fused reporters may be left off the sequences shown.

For this experiment, the target named is Kluyveromyces lactis Nmd4 (Kluyveromyces lactis) (UniProt Q6CVZ8). Nature of the experiment: SEC-MALS.

B1: Kluyveromyces lactis Nmd4 (protein, UniProt Q6CVZ8 1-244)
chain: MILNFIIDSSSFEKGLGNIAIWSKLNDPKLTINAYLPLFTIQELDFQRFKRKSVVAKRALHFIDLLQDSTSFKLHLEYPELNEAISWNETVKLCQQNSHTSLSQHQISVIPIRFKKLLKSCYYKCHYKSHDLDEDIDHTNEKSDPDDKGWVLVTEDDTVRSLATQFQIPFISVVEADAIINACIKDKSYVVNEKFSKTVIKKANKVKEQEDGKKVFVTDFKNDFLAPRAKSGELWTPTSAKNKS
Turning to B1, the binding entry is on record as “no binding (tested: 1 mg/mL)”.
